{"sequences": {"note": "Protein sequences, listed by entry. Tags and fused reporters are not part of them.", "UniProt Q6WKZ8": "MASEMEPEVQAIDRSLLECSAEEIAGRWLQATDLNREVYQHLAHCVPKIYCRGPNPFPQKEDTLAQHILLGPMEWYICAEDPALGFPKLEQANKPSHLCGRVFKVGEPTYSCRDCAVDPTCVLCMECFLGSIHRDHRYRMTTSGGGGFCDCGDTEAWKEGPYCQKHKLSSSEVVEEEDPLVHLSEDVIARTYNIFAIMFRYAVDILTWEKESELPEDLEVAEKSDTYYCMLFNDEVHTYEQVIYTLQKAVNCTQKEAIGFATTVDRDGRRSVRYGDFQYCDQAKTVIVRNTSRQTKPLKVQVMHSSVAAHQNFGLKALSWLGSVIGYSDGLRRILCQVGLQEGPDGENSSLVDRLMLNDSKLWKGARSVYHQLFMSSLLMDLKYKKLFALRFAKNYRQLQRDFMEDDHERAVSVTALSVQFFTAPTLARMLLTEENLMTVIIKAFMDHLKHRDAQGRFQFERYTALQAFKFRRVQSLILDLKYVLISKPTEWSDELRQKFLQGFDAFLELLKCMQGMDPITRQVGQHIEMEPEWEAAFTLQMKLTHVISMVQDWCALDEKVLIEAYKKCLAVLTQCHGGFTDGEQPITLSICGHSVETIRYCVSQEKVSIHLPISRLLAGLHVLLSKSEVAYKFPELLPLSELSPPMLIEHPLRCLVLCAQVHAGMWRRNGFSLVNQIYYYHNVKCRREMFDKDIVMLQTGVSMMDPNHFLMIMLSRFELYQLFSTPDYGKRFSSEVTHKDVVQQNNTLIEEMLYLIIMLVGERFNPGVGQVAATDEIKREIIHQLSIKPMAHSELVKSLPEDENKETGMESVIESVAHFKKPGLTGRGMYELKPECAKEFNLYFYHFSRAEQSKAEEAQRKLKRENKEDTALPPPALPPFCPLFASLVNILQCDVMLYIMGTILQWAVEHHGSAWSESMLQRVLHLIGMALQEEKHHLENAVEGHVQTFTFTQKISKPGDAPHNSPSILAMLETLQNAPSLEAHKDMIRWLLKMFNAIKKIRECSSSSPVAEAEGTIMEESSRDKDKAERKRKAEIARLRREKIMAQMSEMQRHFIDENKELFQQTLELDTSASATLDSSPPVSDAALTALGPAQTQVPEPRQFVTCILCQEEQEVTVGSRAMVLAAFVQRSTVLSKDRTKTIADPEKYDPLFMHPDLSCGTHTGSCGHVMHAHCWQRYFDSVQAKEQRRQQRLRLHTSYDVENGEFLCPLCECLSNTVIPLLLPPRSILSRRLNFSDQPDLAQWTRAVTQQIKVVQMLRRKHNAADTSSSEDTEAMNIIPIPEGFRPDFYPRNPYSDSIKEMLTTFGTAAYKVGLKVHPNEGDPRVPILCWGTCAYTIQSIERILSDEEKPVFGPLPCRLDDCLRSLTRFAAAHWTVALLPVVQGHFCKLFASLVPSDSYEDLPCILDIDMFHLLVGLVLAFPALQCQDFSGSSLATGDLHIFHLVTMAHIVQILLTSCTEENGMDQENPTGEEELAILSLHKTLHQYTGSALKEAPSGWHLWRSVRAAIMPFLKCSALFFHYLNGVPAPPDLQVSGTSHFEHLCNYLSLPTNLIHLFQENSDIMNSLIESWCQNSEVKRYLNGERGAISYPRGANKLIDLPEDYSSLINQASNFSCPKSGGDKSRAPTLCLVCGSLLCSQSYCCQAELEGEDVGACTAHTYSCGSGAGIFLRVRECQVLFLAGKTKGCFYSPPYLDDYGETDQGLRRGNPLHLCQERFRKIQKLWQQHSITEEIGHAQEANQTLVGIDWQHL"}, "source": "paper PMC5570191", "molecules": {"B1": {"name": "endogenous mouse TEX19.1 (protein, UniProt Q99MV2 1-351)", "chain": "MCPPVSVRHGARGMSCLYEAWLYHLVHGEQTKICFACFKAAFLLNKLYLEMGDWQEEEEEEEEEDADLLEYLSESESESEQEPGPEQDAWRGLGSLYVPQSVSEGSGVLLPTPVWTQGILFSIFVPTELFPQEAVPLDLGPEDAEWTQALPWRLDGLFPCSHQLIPPLTWWDIFDVMPSPGQPVLLELRCHWPLDQTVAQSWLQDQKFVLLLDSVQSRCHLLSMRVRWVVRTQVQHWQVLLDPGEMWVAHFRKEVGQHGLYHQSLNPWRLSILTASELGMELLPATCYLWNKGFWVGSFLPWHINMPETWSWEPGERLFITDATICGTDYHLAQSFLDSHPTPHPLLTLTP"}, "B2": {"name": "mouse TEX19.1-YFP (expressed in HEK293 or HEK293T cells) (protein, UniProt Q99MV2 1-351)", "chain": "MCPPVSVRHGARGMSCLYEAWLYHLVHGEQTKICFACFKAAFLLNKLYLEMGDWQEEEEEEEEEDADLLEYLSESESESEQEPGPEQDAWRGLGSLYVPQSVSEGSGVLLPTPVWTQGILFSIFVPTELFPQEAVPLDLGPEDAEWTQALPWRLDGLFPCSHQLIPPLTWWDIFDVMPSPGQPVLLELRCHWPLDQTVAQSWLQDQKFVLLLDSVQSRCHLLSMRVRWVVRTQVQHWQVLLDPGEMWVAHFRKEVGQHGLYHQSLNPWRLSILTASELGMELLPATCYLWNKGFWVGSFLPWHINMPETWSWEPGERLFITDATICGTDYHLAQSFLDSHPTPHPLLTLTP"}}, "key": {"[1]": {"target": "T1, mouse TEX19.1-YFP (stably expressed in mouse ESCs) (mouse) (UniProt Q99MV2)", "T1 sequence": "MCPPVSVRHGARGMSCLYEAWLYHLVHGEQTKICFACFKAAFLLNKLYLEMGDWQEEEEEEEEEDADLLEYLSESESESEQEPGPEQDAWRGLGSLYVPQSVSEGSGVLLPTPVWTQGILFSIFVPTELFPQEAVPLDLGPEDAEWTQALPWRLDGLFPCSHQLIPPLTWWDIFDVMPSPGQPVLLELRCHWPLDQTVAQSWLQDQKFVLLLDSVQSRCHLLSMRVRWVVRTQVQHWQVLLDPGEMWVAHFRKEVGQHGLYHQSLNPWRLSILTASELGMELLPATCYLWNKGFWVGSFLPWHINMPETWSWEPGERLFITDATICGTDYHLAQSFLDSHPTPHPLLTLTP", "assay": "co-IP; anti-YFP (GFP-Trap) IPs from cytoplasmic extracts of mouse ESCs stably expressing TEX19.1-YFP or YFP; Western blot of inputs, IPs and supernatants"}, "[2]": {"target": "T2, mouse TEX19.1-YFP (expressed in HEK293 or HEK293T cells) (mouse) (UniProt Q99MV2)", "T2 sequence": "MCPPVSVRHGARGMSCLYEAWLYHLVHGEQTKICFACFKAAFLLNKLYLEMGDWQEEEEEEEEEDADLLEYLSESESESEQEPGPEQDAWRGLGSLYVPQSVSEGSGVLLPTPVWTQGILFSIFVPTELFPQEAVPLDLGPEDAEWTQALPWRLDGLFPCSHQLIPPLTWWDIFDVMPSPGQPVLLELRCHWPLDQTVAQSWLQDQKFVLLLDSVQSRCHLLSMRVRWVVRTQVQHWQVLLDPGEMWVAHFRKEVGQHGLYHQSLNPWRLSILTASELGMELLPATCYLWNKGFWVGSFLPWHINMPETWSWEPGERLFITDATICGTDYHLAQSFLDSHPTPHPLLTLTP", "assay": "co-IP; stable HEK293 lines expressing TEX19.1-YFP or YFP, transiently transfected with FLAG-UBR2; anti-YFP IP, Western blot with anti-FLAG and anti-YFP"}, "[3]": {"target": "endogenous mouse UBR2 (mouse (endogenous in mouse ESCs)) (UniProt Q6WKZ8)", "assay": "SEC; Superdex 200 10/300 GL in BC200 buffer (25 mM HEPES pH 7.3, 200 mM NaCl); 2 mg cytoplasmic extract of mouse ESCs; fractions Western blotted"}, "[4]": {"target": "FLAG-UBR2 (UniProt Q6WKZ8)", "assay": "co-IP; HEK293T transiently transfected with TEX19.1-YFP and FLAG-UBR2 or FLAG alone; anti-FLAG M2 affinity gel, 1 hr at 4°C, 10 mM Tris pH 7.5, 150 mM NaCl"}}, "note": "Results are given in words; binding and its absence hold for the method and conditions named. For some of these results: In cells and extracts the contact can be indirect. Some binding calls cover weakened binding; strength is not graded here. For some of these results: Sequences can lack the tags named with a protein."}
{"molecule": "endogenous mouse UBR2 (from UniProt Q6WKZ8 1-1755) (enzyme)", "values": [{"measurement": "binding", "setting": "[1]", "result": "binds"}]}
{"molecule": "FLAG-UBR2 (from UniProt Q6WKZ8 1-1755) (enzyme)", "values": [{"measurement": "binding", "setting": "[2]", "result": "binds"}]}
{"molecule": "B1", "values": [{"measurement": "binding", "setting": "[3]", "result": "binds"}]}
{"molecule": "B2", "values": [{"measurement": "binding", "setting": "[4]", "result": "binds"}]}
